Drawing on the supplement of paper PMC10849652, this text covers log2 fold change for 31 targets.

Protein sequences, listed by entry. Tags and fused reporters are not part of them. Lines headed by an entry give the natural chain unless they say otherwise; changes in a name come on top.
UniProt Q9ULQ0: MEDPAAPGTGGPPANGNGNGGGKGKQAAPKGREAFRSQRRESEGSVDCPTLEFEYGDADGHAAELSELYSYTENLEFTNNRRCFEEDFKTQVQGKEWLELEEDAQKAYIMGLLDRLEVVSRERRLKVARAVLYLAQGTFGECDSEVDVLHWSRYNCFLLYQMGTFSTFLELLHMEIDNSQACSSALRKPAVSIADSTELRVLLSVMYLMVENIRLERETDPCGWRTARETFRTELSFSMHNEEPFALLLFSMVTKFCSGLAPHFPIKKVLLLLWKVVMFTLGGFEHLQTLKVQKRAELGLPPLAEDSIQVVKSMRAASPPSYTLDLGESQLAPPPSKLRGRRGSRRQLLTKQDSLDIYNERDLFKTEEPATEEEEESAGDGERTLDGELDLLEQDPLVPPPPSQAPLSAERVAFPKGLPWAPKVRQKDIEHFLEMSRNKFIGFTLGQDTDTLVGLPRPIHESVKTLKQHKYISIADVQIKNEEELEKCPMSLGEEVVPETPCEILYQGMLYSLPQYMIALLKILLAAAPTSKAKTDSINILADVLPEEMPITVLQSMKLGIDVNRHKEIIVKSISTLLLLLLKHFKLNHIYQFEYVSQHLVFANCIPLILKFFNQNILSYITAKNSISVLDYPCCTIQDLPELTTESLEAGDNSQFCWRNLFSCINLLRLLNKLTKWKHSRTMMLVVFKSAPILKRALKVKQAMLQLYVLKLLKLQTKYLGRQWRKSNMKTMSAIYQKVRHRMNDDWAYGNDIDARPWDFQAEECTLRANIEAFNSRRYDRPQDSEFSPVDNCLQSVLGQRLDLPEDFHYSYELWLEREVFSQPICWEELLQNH
UniProt O60347: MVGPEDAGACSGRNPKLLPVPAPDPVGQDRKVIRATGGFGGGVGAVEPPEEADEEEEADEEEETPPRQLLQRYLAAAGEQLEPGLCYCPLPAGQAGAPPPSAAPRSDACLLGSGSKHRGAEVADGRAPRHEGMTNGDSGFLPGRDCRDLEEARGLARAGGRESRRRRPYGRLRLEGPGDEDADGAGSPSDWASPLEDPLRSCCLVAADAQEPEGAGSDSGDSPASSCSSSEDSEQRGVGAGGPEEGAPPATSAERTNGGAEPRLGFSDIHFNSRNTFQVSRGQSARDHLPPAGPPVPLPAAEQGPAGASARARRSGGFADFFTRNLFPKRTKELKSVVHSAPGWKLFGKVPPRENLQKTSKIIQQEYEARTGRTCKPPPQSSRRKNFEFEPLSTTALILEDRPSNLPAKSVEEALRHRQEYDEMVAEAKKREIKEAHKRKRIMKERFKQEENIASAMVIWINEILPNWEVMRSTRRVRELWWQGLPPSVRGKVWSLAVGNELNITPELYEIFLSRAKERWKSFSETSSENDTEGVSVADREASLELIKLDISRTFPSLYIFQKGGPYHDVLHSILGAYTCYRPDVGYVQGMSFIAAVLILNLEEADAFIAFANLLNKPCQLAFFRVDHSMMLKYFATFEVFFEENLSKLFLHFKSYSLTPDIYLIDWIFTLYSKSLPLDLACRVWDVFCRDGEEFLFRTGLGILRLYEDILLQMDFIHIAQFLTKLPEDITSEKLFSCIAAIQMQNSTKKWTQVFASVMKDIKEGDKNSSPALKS
UniProt O94901, whole entry, looked up: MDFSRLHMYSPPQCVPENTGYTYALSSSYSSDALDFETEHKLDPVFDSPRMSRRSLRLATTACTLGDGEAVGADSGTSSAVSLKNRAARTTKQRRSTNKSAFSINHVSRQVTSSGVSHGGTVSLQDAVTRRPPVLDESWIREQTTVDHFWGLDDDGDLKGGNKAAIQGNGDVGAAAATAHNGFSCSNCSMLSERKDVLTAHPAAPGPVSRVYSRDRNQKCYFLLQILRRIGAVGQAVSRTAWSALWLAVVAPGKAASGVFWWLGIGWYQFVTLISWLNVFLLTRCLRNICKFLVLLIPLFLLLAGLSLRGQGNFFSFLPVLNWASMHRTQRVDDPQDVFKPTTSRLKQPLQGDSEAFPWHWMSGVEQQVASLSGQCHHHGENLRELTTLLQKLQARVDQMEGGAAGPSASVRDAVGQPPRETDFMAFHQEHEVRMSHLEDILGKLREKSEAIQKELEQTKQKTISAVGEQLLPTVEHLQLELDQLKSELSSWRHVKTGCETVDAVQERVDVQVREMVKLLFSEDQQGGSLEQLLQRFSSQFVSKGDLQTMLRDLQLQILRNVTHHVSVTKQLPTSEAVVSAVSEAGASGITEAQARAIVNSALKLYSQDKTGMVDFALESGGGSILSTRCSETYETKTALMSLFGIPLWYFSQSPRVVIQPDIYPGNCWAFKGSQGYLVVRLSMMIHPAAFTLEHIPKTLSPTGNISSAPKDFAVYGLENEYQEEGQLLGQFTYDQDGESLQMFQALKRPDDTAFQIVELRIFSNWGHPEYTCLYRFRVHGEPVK
UniProt Q9UBS9: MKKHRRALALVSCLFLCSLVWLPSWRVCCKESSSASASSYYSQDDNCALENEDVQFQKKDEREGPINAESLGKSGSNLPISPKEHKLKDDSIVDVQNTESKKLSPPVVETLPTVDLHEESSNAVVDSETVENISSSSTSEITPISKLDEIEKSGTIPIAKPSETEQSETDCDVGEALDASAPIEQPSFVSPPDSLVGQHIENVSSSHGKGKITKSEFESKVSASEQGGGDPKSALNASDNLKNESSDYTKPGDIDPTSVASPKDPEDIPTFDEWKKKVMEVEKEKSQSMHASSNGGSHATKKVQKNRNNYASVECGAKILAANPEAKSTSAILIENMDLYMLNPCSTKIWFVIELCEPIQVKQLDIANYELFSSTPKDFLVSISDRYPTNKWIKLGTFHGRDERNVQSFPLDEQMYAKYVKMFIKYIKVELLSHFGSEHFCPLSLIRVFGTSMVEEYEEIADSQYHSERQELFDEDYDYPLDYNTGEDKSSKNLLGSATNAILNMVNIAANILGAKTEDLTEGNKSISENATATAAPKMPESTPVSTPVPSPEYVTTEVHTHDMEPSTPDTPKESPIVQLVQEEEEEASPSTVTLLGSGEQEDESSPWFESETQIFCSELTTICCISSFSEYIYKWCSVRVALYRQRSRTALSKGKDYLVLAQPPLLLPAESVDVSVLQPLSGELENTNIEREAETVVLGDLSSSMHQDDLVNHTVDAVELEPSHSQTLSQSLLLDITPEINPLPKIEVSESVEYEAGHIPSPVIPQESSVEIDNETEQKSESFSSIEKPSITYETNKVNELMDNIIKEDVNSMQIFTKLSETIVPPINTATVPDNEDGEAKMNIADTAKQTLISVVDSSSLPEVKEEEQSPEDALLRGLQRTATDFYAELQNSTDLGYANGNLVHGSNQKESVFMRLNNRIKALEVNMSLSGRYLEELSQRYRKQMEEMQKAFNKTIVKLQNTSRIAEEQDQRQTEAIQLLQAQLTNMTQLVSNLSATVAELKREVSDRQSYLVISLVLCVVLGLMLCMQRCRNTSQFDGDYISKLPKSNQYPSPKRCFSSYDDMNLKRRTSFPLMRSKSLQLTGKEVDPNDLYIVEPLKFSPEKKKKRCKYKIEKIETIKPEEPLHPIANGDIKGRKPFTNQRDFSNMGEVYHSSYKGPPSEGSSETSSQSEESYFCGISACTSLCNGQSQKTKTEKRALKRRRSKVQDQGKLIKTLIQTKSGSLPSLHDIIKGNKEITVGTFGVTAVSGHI
UniProt Q96C24: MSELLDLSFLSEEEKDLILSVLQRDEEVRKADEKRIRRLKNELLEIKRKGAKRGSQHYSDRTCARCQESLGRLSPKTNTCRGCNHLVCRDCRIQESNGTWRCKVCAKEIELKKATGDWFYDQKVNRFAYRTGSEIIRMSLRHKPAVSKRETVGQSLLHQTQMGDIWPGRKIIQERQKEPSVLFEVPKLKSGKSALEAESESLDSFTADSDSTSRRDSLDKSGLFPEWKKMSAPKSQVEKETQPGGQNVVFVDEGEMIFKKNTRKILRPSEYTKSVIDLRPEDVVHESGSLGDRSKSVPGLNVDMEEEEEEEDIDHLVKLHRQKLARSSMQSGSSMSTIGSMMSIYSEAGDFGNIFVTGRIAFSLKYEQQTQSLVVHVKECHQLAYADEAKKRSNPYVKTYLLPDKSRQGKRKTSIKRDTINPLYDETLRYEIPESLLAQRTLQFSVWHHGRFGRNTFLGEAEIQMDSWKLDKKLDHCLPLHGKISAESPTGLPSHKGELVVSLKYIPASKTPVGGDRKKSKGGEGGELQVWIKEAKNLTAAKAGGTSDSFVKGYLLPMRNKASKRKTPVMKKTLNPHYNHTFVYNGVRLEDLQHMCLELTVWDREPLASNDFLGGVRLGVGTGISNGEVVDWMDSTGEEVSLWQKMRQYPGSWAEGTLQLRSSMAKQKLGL
UniProt Q8NBK3: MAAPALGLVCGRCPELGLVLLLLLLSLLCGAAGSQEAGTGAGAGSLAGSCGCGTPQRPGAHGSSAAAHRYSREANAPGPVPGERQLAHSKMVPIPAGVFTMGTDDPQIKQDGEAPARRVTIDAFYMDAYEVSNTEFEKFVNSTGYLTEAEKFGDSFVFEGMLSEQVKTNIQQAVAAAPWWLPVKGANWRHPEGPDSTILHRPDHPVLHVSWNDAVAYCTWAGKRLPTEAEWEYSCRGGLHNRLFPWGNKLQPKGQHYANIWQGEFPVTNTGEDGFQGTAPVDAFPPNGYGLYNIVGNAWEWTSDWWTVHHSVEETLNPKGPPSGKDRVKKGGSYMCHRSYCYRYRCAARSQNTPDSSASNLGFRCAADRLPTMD
UniProt Q8N300: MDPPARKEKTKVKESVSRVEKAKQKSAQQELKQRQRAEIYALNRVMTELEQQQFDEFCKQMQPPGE
UniProt Q9NRP7: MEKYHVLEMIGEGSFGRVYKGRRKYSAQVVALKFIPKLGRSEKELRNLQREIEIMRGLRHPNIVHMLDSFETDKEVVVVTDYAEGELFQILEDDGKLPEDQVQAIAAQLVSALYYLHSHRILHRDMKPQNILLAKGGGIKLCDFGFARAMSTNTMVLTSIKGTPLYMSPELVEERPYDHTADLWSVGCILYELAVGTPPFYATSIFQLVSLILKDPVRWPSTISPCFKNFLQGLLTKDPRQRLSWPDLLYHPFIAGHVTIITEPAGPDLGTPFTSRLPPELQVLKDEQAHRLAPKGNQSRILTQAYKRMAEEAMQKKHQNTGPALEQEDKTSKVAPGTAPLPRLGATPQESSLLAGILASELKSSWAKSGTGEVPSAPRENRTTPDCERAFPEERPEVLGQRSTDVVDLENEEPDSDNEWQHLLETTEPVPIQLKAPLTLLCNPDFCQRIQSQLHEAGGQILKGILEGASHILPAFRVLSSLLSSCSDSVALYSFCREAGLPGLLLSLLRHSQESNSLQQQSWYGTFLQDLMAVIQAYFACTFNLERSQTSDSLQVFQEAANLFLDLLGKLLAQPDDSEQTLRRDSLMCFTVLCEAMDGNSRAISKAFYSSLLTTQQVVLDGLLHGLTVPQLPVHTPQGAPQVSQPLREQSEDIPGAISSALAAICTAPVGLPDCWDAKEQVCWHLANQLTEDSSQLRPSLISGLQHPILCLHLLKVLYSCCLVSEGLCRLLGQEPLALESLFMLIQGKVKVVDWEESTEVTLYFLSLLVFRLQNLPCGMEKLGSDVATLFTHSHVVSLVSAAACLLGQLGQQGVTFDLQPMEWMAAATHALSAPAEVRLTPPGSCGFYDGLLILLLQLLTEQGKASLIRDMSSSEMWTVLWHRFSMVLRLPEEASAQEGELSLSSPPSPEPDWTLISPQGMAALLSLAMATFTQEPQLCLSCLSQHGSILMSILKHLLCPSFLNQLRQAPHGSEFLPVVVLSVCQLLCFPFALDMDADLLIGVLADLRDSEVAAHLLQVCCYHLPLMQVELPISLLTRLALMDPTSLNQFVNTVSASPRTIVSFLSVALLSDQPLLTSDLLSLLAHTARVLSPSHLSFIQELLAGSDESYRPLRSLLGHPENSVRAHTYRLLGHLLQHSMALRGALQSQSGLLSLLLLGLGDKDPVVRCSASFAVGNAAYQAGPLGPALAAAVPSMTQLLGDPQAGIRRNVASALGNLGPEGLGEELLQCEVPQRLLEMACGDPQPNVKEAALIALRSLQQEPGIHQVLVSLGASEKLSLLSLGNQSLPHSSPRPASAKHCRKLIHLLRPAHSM
UniProt Q15544, whole entry, looked up: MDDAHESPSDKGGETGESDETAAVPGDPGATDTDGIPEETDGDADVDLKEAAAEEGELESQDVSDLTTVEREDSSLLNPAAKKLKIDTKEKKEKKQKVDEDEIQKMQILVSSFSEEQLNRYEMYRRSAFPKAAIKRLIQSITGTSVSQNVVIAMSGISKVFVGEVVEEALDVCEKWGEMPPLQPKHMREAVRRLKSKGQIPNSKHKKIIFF
UniProt Q6P1N9: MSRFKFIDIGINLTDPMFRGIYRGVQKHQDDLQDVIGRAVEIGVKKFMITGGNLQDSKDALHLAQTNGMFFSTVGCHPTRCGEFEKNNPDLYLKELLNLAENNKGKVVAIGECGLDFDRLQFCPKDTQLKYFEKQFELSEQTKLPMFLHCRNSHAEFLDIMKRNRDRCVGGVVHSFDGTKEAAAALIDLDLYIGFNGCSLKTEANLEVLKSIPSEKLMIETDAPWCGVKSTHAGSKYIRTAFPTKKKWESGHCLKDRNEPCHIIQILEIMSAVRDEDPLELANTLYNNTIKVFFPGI

The other results are listed elsewhere or left out.

Compound in one assay: CCCCN(Cc1ccc(C(=O)NO)cc1)C(=O)Nc1ccccc1 [Nexturastat A]
The experiment in a line: log2 fold change, soluble protein after heating vs DMSO (PISA); higher = thermal stabilisation; K562 cells, 10 uM, 30 min; active = over 0.2 and 3.5 SD of the protein, either way, in both replicates (recomputed). The gist of the method:
(§1)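 Thermal stability values are relative to control samples and come from duplicates. They are expressed as log2 fold changes. For measurement, K562 cells (2×10^6 cells/mL) received 10 μM compound for 30 min, and aliquots were heated for 3 min over 48°C-58°C, pooled, and extracted at 4°C in PBS with 0.5% NP-40. Soluble protein, the supernatant after 21,000xg for 90 min, was quantified by TMTpro 16plex LC-MS/MS with equalised channel sums.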
In the case of TAOK2 (UniProt Q9UL54), the log2 fold change was active: 0.487.

Regarding STRIP2 (UniProt Q9ULQ0), the log2 fold change was inactive: -0.082.

For TBC1D12 (UniProt O60347), the log2 fold change is inactive: 0.177.

Turning to SUN1 isoform 9 (UniProt O94901), the log2 fold change is inactive: 0.11.

Turning to SUCO (UniProt Q9UBS9), the log2 fold change was inactive: 0.138.

For SYTL4 (UniProt Q96C24), the log2 fold change was inactive: -0.049.

Regarding TASP1 (UniProt Q9H6P5), the log2 fold change was inactive: 0.672.

Regarding SUGP2 (UniProt Q8IX01), the log2 fold change is inactive: 0.279.

TAF13 (UniProt Q15543): the log2 fold change is inactive: -0.011.

Regarding STXBP4 (UniProt Q6ZWJ1), the log2 fold change is inactive: 0.108.

On to TAB2 (UniProt Q9NYJ8), for which the log2 fold change was inactive: 0.025.

With SUMF1 isoform 3 (UniProt Q8NBK3), the log2 fold change was inactive: -0.081.

In the case of SVBP (UniProt Q8N300), the log2 fold change was inactive: -0.054.

Regarding TAF5 (UniProt Q15542), the log2 fold change was inactive: 0.029.

Compound in another assay: CCCS(=O)(=O)Nc1ccc(F)c(C(=O)c2c[nH]c3ncc(-c4ccc(Cl)cc4)cc23)c1F [vemurafenib]
The assay is described as above. The gist of the method: as §1
On to STRIP2 (UniProt Q9ULQ0), for which the log2 fold change was inactive: -0.037.

For TBC1D12 (UniProt O60347), the log2 fold change was inactive: 0.072.

SUN1 isoform 9 (UniProt O94901): the log2 fold change is inactive: -0.21.

For SUCO (UniProt Q9UBS9), the log2 fold change was inactive: -0.244.

On to TACC2 (UniProt O95359), for which the log2 fold change was inactive: 0.032.

On to TAF13 (UniProt Q15543), for which the log2 fold change is inactive: 0.093.

As to STXBP4 (UniProt Q6ZWJ1), the log2 fold change was inactive: -0.106.

Regarding TAF12 (UniProt Q16514), the log2 fold change was inactive: -0.027.

Consider TAB2 (UniProt Q9NYJ8), for which the log2 fold change is inactive: -0.023.

Consider SUMF1 isoform 3 (UniProt Q8NBK3), for which the log2 fold change is inactive: 0.07.

SUPT5H isoform 2 (UniProt O00267): the log2 fold change is inactive: 0.232.

On to SVBP (UniProt Q8N300), for which the log2 fold change is inactive: -0.014.

For the target TAF5 (UniProt Q15542), the log2 fold change is inactive: 0.146.

STOML1 (UniProt Q9UBI4): the log2 fold change is inactive: -0.017.

Compound in a further assay: CCCS(=O)(=O)Nc1ccc(F)c(C(=O)c2c[nH]c3ncc(Cl)cc23)c1F
The description is as above. The gist of the method:
as §1
For TAOK2 (UniProt Q9UL54), the log2 fold change was inactive: 0.051.

STS (UniProt P08842): the log2 fold change is inactive: -0.241.

As to STRIP2 (UniProt Q9ULQ0), the log2 fold change was inactive: 0.003.

Take TAF6L (UniProt Q9Y6J9): the log2 fold change was inactive: -0.059.

Turning to TBC1D12 (UniProt O60347), the log2 fold change was inactive: 0.016.

Take SUN1 isoform 9 (UniProt O94901): the log2 fold change is inactive: -0.005.

Take SUCO (UniProt Q9UBS9): the log2 fold change was inactive: -0.014.

On to SYTL4 (UniProt Q96C24), for which the log2 fold change was inactive: -0.034.

Take STXBP5L (UniProt Q9Y2K9): the log2 fold change was inactive: 0.056.

In the case of TACC2 (UniProt O95359), the log2 fold change is inactive: -0.054.

For the target STK36 (UniProt Q9NRP7), the log2 fold change was inactive: -0.117.

Regarding STK40 isoform 4 (UniProt Q8N2I9), the log2 fold change is inactive: 0.05.

For SYS1 (UniProt Q8N2H4), the log2 fold change was inactive: -0.008.

Consider TAF11 (UniProt Q15544), for which the log2 fold change is inactive: -0.029.

Take TATDN1 isoform 2 (UniProt Q6P1N9): the log2 fold change was inactive: -0.224.

As for TAF12 (UniProt Q16514), the log2 fold change is inactive: -0.015.

With TADA1 (UniProt Q96BN2), the log2 fold change was inactive: -0.012.

Turning to TAGLN (UniProt Q01995), the log2 fold change was inactive: -0.427.

Regarding SUMF1 isoform 3 (UniProt Q8NBK3), the log2 fold change is inactive: -0.068.

As to SUZ12 (UniProt Q15022), the log2 fold change is inactive: -0.015.

On to SVBP (UniProt Q8N300), for which the log2 fold change was inactive: -0.065.

On to TAZ (UniProt Q16635), for which the log2 fold change is inactive: -0.173.

As for STK35 (UniProt Q8TDR2), the log2 fold change was inactive: -0.234.
